# Drug screen on melanoma cell lines: cell count

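Human melanoma cell lines in 1,536-well plates were treated with one drug for 72 h, then fixed, stained and imaged. The read-out is cell count (nuclei) in % of the DMSO control; lower values mean stronger growth inhibition or killing. Every drug was used at one fixed concentration, the higher of two screened. These are primary screening values without error estimates.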 An unselected part of the screen is shown. An entry leaves out what has no value listed here.

With NC(=O)c1ccc(N(C(N)=O)c2c(F)cccc2F)nc1-c1ccc(F)cc1F at 2 µM the screen read IST-MEL1: 88.8; SK-MEL-5: 88.1; WM1745: 92.3; WM451Lu: 103; COLO 800: 111; RVH-421: 70.4.
With CC(=O)O[C@@]12CO[C@@H]1C[C@H](O)[C@@]1(C)C(=O)[C@H](O)C3=C(C)[C@@H](OC(=O)[C@H](O)[C@@H](NC(=O)OC(C)(C)C)c4ccccc4)C[C@@](O)([C@@H](OC(=O)c4ccccc4)[C@H]21)C3(C)C at 0.0005 µM the screen read IST-MEL1: 39.5; SK-MEL-5: 27.1; WM1745: 34.3; WM451Lu: 29.4; COLO 800: 30.9; RVH-421: 141.
With c1cc(-c2cnn3cc(-c4ccc(OCCN5CCCCC5)cc4)cnc23)ccn1 at 2 µM the screen read IST-MEL1: 80.7; SK-MEL-5: 66.0; WM451Lu: 62.4; COLO 800: 90.9; RVH-421: 105.
With Nc1cccc2c1CN(C1CCC(=O)NC1=O)C2=O (configuration not stated) at 5 µM the screen read IST-MEL1: 89.2; SK-MEL-5: 98.7; WM1745: 74.0; WM451Lu: 86.6; COLO 800: 77.0; RVH-421: 91.5.
With COCC[n+]1c2c(n(Cc3cnccn3)c1C)C(=O)c1ccccc1C2=O at 0.002 µM the screen read IST-MEL1: 45.3; SK-MEL-5: 27.9; WM1745: 81.3; WM451Lu: 29.5; COLO 800: 26.8; RVH-421: 78.0.
With COc1ccc(C2=N[C@@H](c3ccc(Cl)cc3)[C@@H](c3ccc(Cl)cc3)N2C(=O)N2CCNC(=O)C2)c(OC(C)C)c1 at 0.5 µM the screen read IST-MEL1: 118; SK-MEL-5: 103; WM1745: 123; WM451Lu: 88.7; COLO 800: 117; RVH-421: 81.9.
With O=C(Nc1cc(C(F)(F)F)cc(C(F)(F)F)c1)c1cc(Cl)ccc1O at 0.08 µM the screen read IST-MEL1: 95.5; SK-MEL-5: 111; WM1745: 121; WM451Lu: 115; COLO 800: 89.8; RVH-421: 84.0.
With C[C@@H]1CCN(C(=O)CC#N)C[C@@H]1N(C)c1ncnc2[nH]ccc12 at 5 µM the screen read IST-MEL1: 94.4; SK-MEL-5: 93.6; WM1745: 118; WM451Lu: 116; COLO 800: 112; RVH-421: 116.
With CN1CCN(c2ccc3nc(-c4c(N)c5c(F)cccc5[nH]c4=O)[nH]c3c2)CC1 at 0.5 µM the screen read IST-MEL1: 98.0; SK-MEL-5: 59.6; WM1745: 58.8; WM451Lu: 88.4; COLO 800: 81.3; RVH-421: 78.3.
With CC(C)C[C@H](NC(=O)[C@H](Cc1ccccc1)NC(=O)c1cnccn1)B(O)O at 0.005 µM the screen read IST-MEL1: 16.6; SK-MEL-5: 19.2; WM1745: 13.1; WM451Lu: 25.9; COLO 800: 75.3; RVH-421: 2.9.
With Cc1ccc(Nc2nccc(N(C)c3ccc4c(C)n(C)nc4c3)n2)cc1S(N)(=O)=O at 2 µM the screen read IST-MEL1: 95.2; SK-MEL-5: 94.7; WM1745: 80.0; WM451Lu: 81.9; COLO 800: 122; RVH-421: 460.
With Nc1ccn([C@@H]2O[C@H](CO)[C@@H](O)C2(F)F)c(=O)n1 at 0.002 µM the screen read IST-MEL1: 32.2; SK-MEL-5: 91.1; WM1745: 35.8; WM451Lu: 40.2; COLO 800: 40.7; RVH-421: 37.8.
With O=C(O)c1ccc(-c2c[nH]c3ncc(-c4ccccc4)cc23)cc1C1CCCC1 at 0.8 µM the screen read IST-MEL1: 68.4; SK-MEL-5: 76.6; WM1745: 80.8; WM451Lu: 107; COLO 800: 69.3; RVH-421: 78.3.
With COc1cc2c(Oc3ccc4[nH]c(C)cc4c3F)ncnc2cc1OCCCN1CCCC1 at 2 µM the screen read IST-MEL1: 112; SK-MEL-5: 74.4; WM1745: 87.6; WM451Lu: 71.4; COLO 800: 62.3; RVH-421: 87.0.
With COc1cc2ncnc(Nc3ccc(Oc4ccccc4)cc3)c2cc1OC at 10 µM the screen read IST-MEL1: 86.4; SK-MEL-5: 66.8; WM451Lu: 81.7; COLO 800: 113; RVH-421: 112.
With Cc1cc(SCc2sc(-c3ccc(C(F)(F)F)c(F)c3)nc2C)ccc1OCC(=O)O at 10 µM the screen read IST-MEL1: 97.3; SK-MEL-5: 90.0; WM451Lu: 100; COLO 800: 76.3; RVH-421: 123.
With C[C@]1(c2nc3c(C(N)=O)cccc3[nH]2)CCCN1 at 7 µM the screen read IST-MEL1: 99.5; SK-MEL-5: 82.1; WM1745: 104; WM451Lu: 98.5; COLO 800: 48.5; RVH-421: 91.9.
With CO[C@@H]1[C@H](N(C)C(=O)c2ccccc2)C[C@H]2O[C@]1(C)n1c3ccccc3c3c4c(c5c6ccccc6n2c5c31)C(=O)NC4 at 0.4 µM the screen read IST-MEL1: 59.9; SK-MEL-5: 60.2; WM1745: 43.5; WM451Lu: 75.1; COLO 800: 48.5; RVH-421: 69.1.
With CN(C)S(=O)(=O)c1ccc2c(c1)/C(=C/c1cc3c([nH]1)CCCC3)C(=O)N2 at 2 µM the screen read IST-MEL1: 92.9; SK-MEL-5: 65.7; WM1745: 43.0; WM451Lu: 72.8; COLO 800: 51.1; RVH-421: 83.9.
With CN(NC(=O)CC(=O)NN(C)C(=S)c1ccccc1)C(=S)c1ccccc1 at 0.03 µM the screen read IST-MEL1: 32.5; SK-MEL-5: 53.2; WM1745: 36.2; WM451Lu: 102; COLO 800: 26.1; RVH-421: 73.9.
With O=C(O)[C@@H]1[O][Sb](=[O])([O][Sb]2(=[O])[O][C@H]([C@H](O)CO)[C@H](O)[C@H](C(=O)O)[O]2)[O][C@H]([C@H](O)CO)[C@@H]1O (some centres not stated) at 10 µM the screen read IST-MEL1: 119; SK-MEL-5: 95.6; WM1745: 83.9; WM451Lu: 80.8; COLO 800: 98.9; RVH-421: 112.
With COc1cc([C@@H]2c3cc4c(cc3[C@@H](O[C@@H]3O[C@@H]5CO[C@@H](C)O[C@H]5[C@H](O)[C@H]3O)[C@H]3COC(=O)[C@H]23)OCO4)cc(OC)c1O at 0.1 µM the screen read IST-MEL1: 101; SK-MEL-5: 86.8; WM1745: 89.9; WM451Lu: 79.4; COLO 800: 76.8; RVH-421: 99.3.
With OCc1c[nH]c2ccccc12 at 4 µM the screen read IST-MEL1: 110; SK-MEL-5: 126; WM1745: 111; WM451Lu: 127; COLO 800: 83.1; RVH-421: 87.7.
With NC(=O)Nc1cc(-c2cccc(F)c2)sc1C(=O)N[C@H]1CCCNC1 at 0.1 µM the screen read IST-MEL1: 90.8; SK-MEL-5: 96.7; WM1745: 76.0; WM451Lu: 88.5; COLO 800: 73.9; RVH-421: 133.
With COc1ccc(-c2ccc3c(N4CCOCC4)nc(N4C[C@@H](C)O[C@@H](C)C4)nc3n2)cc1CO at 0.1 µM the screen read IST-MEL1: 92.5; SK-MEL-5: 65.2; WM451Lu: 113; COLO 800: 84.4; RVH-421: 114.
With CC(C)CCN1c2nc(Nc3cc(F)c(O)c(F)c3)ncc2N(C)C(=O)C1C (configuration not stated) at 1 µM the screen read IST-MEL1: 94.8; SK-MEL-5: 67.7; WM451Lu: 85.5; COLO 800: 68.5; RVH-421: 109.
With COc1cc(Nc2ncc(F)c(Nc3ccc4c(n3)NC(=O)C(C)(C)O4)n2)cc(OC)c1OC at 2 µM the screen read IST-MEL1: 85.8; SK-MEL-5: 70.7; WM1745: 42.7; WM451Lu: 89.6; COLO 800: 53.8; RVH-421: 116.
With C[C@]12O[C@H](C[C@]1(O)CO)n1c3ccccc3c3c4c(c5c6ccccc6n2c5c31)CNC4=O at 0.02 µM the screen read IST-MEL1: 80.1; SK-MEL-5: 60.4; WM1745: 61.7; WM451Lu: 91.2; COLO 800: 79.4; RVH-421: 66.8.
With Cn1cncc1[C@@](N)(c1ccc(Cl)cc1)c1ccc2c(c1)c(-c1cccc(Cl)c1)cc(=O)n2C at 0.05 µM the screen read IST-MEL1: 76.8; SK-MEL-5: 82.9; WM1745: 97.8; WM451Lu: 79.7; COLO 800: 58.8; RVH-421: 84.1.
With Cn1c(=O)n(-c2ccc(C(C)(C)C#N)cc2)c2c3cc(-c4cnc5ccccc5c4)ccc3ncc21 at 0.02 µM the screen read IST-MEL1: 81.1; SK-MEL-5: 62.5; WM1745: 79.6; WM451Lu: 75.3; COLO 800: 55.0; RVH-421: 76.7.

For reference, 3 entries once more:

Drug	IST-MEL1	SK-MEL-5	WM1745	WM451Lu	COLO 800	RVH-421
O=C(O)c1ccc(-c2c[nH]c3ncc(-c4ccccc4)cc23)cc1C1CCCC1 at 0.8 µM	68.4	76.6	80.8	107	69.3	78.3
COCC[n+]1c2c(n(Cc3cnccn3)c1C)C(=O)c1ccccc1C2=O at 0.002 µM	45.3	27.9	81.3	29.5	26.8	78.0
CC(C)C[C@H](NC(=O)[C@H](Cc1ccccc1)NC(=O)c1cnccn1)B(O)O at 0.005 µM	16.6	19.2	13.1	25.9	75.3	2.9

Values as published with doi:10.1371/journal.pone.0140310, rounded.